Construct, isoform or probe ends are uncertain for at least one entry. Weaker means in comparison with the reference protein, sequence or condition of that experiment.
Target: SmU2AF65 (Schistosoma mansoni) (UniProt C4Q2F6)
Assay: EMSA
Conditions: Carubicin hydrochloride (CH) 10 uM, pre-incubated with protein; EMSA: 0.5 pmol FAM-RNA (heated 70 C 5 min, cooled on ice) with 1 ug WT or 2 ug mutant protein in 10 uL Beyotime reaction buffer (composition, salt and pH not stated); recombinant protein; residues 1-521; protein details: His+SUMO, cleaved with ULP1

## UACAUAAAUUAAUAAGUAUUUUUACUUUUUUUUAUUUUCAAUUUCAACAG [50-nt intron 3' region consensus RNA]
  binding result: binds more weakly
